PubChem BioAssay AID1053208 | Peter MacCallum Cancer Centre, 2014
Here is one part, drawn at random, of about 17,000 reagents tested. 788 of all reagents (4.7%) count as active. 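Calls rest on z-score classes alone; an extra cut-off of viability at most 70% of control was not applied to them.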 A number with no mark means an inactive call. Reagent sequences are not shown.

Purpose: 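Synthetic lethal interactions between gene loss and doxorubicin in osteosarcoma cells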 (primary screen)
System: mouse osteosarcoma cells, early-passage culture from an engineered mouse model of fibroblastic bone tumour
Reagents: siRNA pool against mouse genes, 40 nM
Time to read-out: about 120 h (48 h before drug, then 72 h with drug)
Challenge: doxorubicin 100 nM for 72 h, roughly 30-40% inhibitory dose
Detection: 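Luminescent ATP signal taken as viability with or without 100 nM doxorubicin for 72 h; mean of two wells set against non-targeting siRNA and turned into robust z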
Scale: viability z-score with doxorubicin and doxorubicin viability vs non-targeting: higher = more viable cells under doxorubicin; viability z-score without drug: higher = more viable cells with knock-down alone; z-score of drug to no-drug ratio: higher = less drug sensitisation by knock-down
Active means: 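Called active if knock-down leaves viability unchanged without drug (z within -2 to 2) but lowers it with doxorubicin (z at or under -2)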

gene | PubChem SID | combined z-score class | viability z-score with doxorubicin | viability z-score without drug | z-score of drug to no-drug ratio | doxorubicin viability vs non-targeting
Slc12a3 | SID152286441 | no change with or without drug | 0.22 | -0.34 | 0.56 | 0.96
C130074G19Rik | SID152285751 | no change with or without drug | -1.57 | 1.01 | -2.14 | 0.8
Ncor2 | SID152307172 | no change with or without drug | 1.24 | -0.51 | 1.8 | 1.05
Ccdc59 | SID152323469 | no change with or without drug | -0.79 | -1.18 | 0.11 | 0.87
Mtmr3 | SID152319289 | no change with or without drug | 1.12 | 0.51 | 0.9 | 1.04
Tas2r134 | SID152322601 | no change with or without drug | 1.46 | 1.52 | 0.56 | 1.07
Chrd | SID152336221 | no change with or without drug | 0.11 | 0.17 | 0.11 | 0.95
Ppp2r2d | SID152335219 | high cell count with doxorubicin only | 3.26 | -0.51 | 4.05 | 1.23
Itk | SID152315004 | no change with or without drug | 0.67 | -0.17 | 0.9 | 1
Pcsk1 | SID152323182 | no change with or without drug | -0.67 | 0.34 | -0.79 | 0.88
Ccndbp1 | SID152339203 | no change with or without drug | -0.22 | -1.18 | 0.79 | 0.92
Sdf4 | SID152297223 | high cell count without drug only | 1.69 | 3.2 | -0.22 | 1.09
Prl8a6 | SID152287732 | no change with or without drug | 0.67 | 0.67 | 0.34 | 1
Tigar | SID152275711 | low cell count with doxorubicin only (active) | -2.02 | -1.18 | -1.35 | 0.76
Pou6f2 | SID152272304 | no change with or without drug | 0 | 0.67 | -0.34 | 0.94
Mrnip | SID152319585 | no change with or without drug | -0.45 | -0.17 | -0.22 | 0.9
Meis3 | SID152337493 | no change with or without drug | -0.34 | -0.17 | -0.11 | 0.91
Tas2r139 | SID152262721 | no change with or without drug | -0.9 | 0.67 | -1.24 | 0.86
E2f4 | SID152340534 | high cell count without drug only | 1.12 | 2.19 | -0.22 | 1.04
Arnt | SID152333233 | no change with or without drug | 0.22 | 0.51 | 0 | 0.96
Vmn1r230 | SID152299944 | no change with or without drug | 0.34 | 1.52 | -0.56 | 0.97
Tnfrsf8 | SID152318075 | no change with or without drug | 0.22 | 0.51 | 0 | 0.96
Kif17 | SID152307027 | no change with or without drug | -0.67 | -1.18 | 0.22 | 0.88
Nsmce2 | SID152320566 | low cell count without drug only | -1.8 | -2.19 | -0.34 | 0.78
Tas2r107 | SID152306312 | high cell count without drug only | -1.8 | 2.19 | -2.92 | 0.78
Gzmn | SID152264739 | no change with or without drug | 1.12 | 0.51 | 0.9 | 1.04
Or2at4 | SID152274183 | no change with or without drug | 0 | 0.84 | -0.45 | 0.94
Mchr1 | SID152320235 | no change with or without drug | -0.56 | -0.17 | -0.34 | 0.89
Gchfr | SID152265898 | low cell count with doxorubicin only (active) | -2.25 | 1.69 | -3.15 | 0.74
Atg4a | SID152291985 | no change with or without drug | 0.67 | 1.85 | -0.45 | 1
Rpgrip1l | SID152321956 | no change with or without drug | 0.67 | 1.18 | 0 | 1
Vmn1r189 | SID152277276 | high cell count with doxorubicin only | 2.02 | 0.51 | 1.8 | 1.12
Ifit1 | SID152310261 | no change with or without drug | -0.79 | -0.84 | -0.11 | 0.87
Nnt | SID152314933 | no change with or without drug | 0.9 | 0.17 | 0.9 | 1.02
